Some of the results follow.
Target: T1, OsSMF1 (Oryza sativa, UniProt Q6ZLB0 1-436)
T1 sequence: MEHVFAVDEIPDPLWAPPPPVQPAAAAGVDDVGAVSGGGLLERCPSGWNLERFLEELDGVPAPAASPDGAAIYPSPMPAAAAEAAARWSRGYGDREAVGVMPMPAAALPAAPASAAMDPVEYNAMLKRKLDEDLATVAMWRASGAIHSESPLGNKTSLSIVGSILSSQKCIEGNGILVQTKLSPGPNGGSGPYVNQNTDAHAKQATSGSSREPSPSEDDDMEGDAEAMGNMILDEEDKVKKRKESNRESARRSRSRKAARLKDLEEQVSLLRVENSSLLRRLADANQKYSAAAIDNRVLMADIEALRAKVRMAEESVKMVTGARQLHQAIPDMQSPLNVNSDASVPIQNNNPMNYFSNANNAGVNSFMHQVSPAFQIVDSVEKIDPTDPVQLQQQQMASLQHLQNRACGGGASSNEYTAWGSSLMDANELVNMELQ
Assay: protein-binding microarray (RPBM); PBS, 2% BSA, 51.3 ng/ul salmon testes DNA, 50 uM zinc acetate, 200 nM TF, 25 C, 1 h; high values mean tight binding
Conditions: protein: recombinant; tags: N-terminal polyhistidine and DsRed monomer fusion (pET32a); chain copies: 2; label: CyDye5-dUTP incorporated in the synthesized complementary strand; 3' TTTTT single-stranded linker to array surface; dsDNA, one strand shown
Outline: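 Transcription factors, each fused N-terminally to a polyhistidine tag and DsRed, were expressed in E. coli BL21-CodonPlus and purified on Ni–NTA. A custom Agilent array was made double-stranded by primer extension with Cy5-dUTP and blocked with 2% BSA. It was incubated with 200 nM protein in PBS, 2% BSA, salmon testes DNA and 50 µM zinc acetate at 25 °C for 1 h, then washed. The binding signal is per-feature fluorescence intensity (arbitrary units) read on an Axon 4000B scanner.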

Q: For “CGTTTTATTCTGTACTATCTCCGTCCCATAATAATTGTATCGGAGTCACCTAGTGCAG”, which binding signal is on record?
A: The binding signal was 21900 fluorescence intensity (a.u.).

Q: For “AGGGATACGCGTGTATATATGGCGCGGCCCGGCCAAAAGTCGGAGTCACCTAGTGCAG”, which binding signal is on record?
A: The binding signal was 5160 fluorescence intensity (a.u.).

Q: For “TCTGTACCAAACTCAATTTTAGAATTCAGAGATCCAATAACGGAGTCACCTAGTGCAG”, which binding signal is on record?
A: Its binding signal is 40000 fluorescence intensity (a.u.).

Q: Which binding signal does the source give for “AGAATTTAAAGCTCCTCAAACAGACCCTTAGTCACCTACCCGGAGTCACCTAGTGCAG” here?
A: Its binding signal is 3880 fluorescence intensity (a.u.).

Q: With “TAACTAATTATGTGTTAATTCATCTTTTCATTTACGTGTCCGGAGTCACCTAGTGCAG” as the sequence, how does the binding signal read?
A: The binding signal was 3780 fluorescence intensity (a.u.).

Q: With “CGTGCTCCCGCCTCACGTTTGCCACCTCATGGGCTGGGCTCGGAGTCACCTAGTGCAG” as the sequence, how does the binding signal read?
A: The binding signal was 7220 fluorescence intensity (a.u.).

Q: For “CAACGCCCGCGTCACTCGCCCTAGGGCGACACGGGCGGCGCGGAGTCACCTAGTGCAG”, which binding signal is on record?
A: Its binding signal is 4780 fluorescence intensity (a.u.).

Q: How did the binding signal turn out when “AGGATTACAATGCGTCTGCCAAGAATGGCCCGACGAGATCCGGAGTCACCTAGTGCAG” was run?
A: Its binding signal is 3190 fluorescence intensity (a.u.).

Q: For “GCAATCCCACGTTATCCATCACCCCACCGGGGAAGCCCAACGGAGTCACCTAGTGCAG”, which binding signal is on record?
A: Its binding signal is 3310 fluorescence intensity (a.u.).

Q: “GGCCGTGACGACGCGGCGCCACCGCTTGCACGCGTACGCCCGGAGTCACCTAGTGCAG” was tested. Which binding signal did it give?
A: Its binding signal is 3160 fluorescence intensity (a.u.).

Q: How did the binding signal turn out when “CCGAACCGTTCCTCCTACAGGCAATTCCCTCAACCTAAACCGGAGTCACCTAGTGCAG” was run?
A: Its binding signal is 3400 fluorescence intensity (a.u.).

Q: How did the binding signal turn out when “TTTGTCCCTGTACGGTTCTACATTGTACATATATATATATCGGAGTCACCTAGTGCAG” was run?
A: The binding signal was 12600 fluorescence intensity (a.u.).

Q: Which binding signal does the source give for “GACTAGCCCCACCTCACTCCTCCCCTCGCGACCGCGTCAACGGAGTCACCTAGTGCAG” here?
A: Its binding signal is 3650 fluorescence intensity (a.u.).

Q: With “GGCGATGCTTTGATTGCATCACACCGTCGTCGTAAGCCCACGGAGTCACCTAGTGCAG” as the sequence, how does the binding signal read?
A: The binding signal was 3150 fluorescence intensity (a.u.).

Q: For “CCTCGCAGTCGCAGCAGCCACCTCTCGCCAAACTCCCTCTCGGAGTCACCTAGTGCAG”, which binding signal is on record?
A: Its binding signal is 15200 fluorescence intensity (a.u.).

Q: Which binding signal does the source give for “ATTATTTATTTTGTTTGTGATTTGCTTTATTATTAAAATACGGAGTCACCTAGTGCAG” here?
A: Its binding signal is 20800 fluorescence intensity (a.u.).

Q: Which binding signal does the source give for “AGCTGTGTTGCTAATTGTGGCATTGTGATGTGATGATCCCCGGAGTCACCTAGTGCAG” here?
A: The binding signal was 3160 fluorescence intensity (a.u.).

Q: For “GTGGTCTCGTGGGCATCGTCCCAAGTCGCCGGGATCCAGACGGAGTCACCTAGTGCAG”, which binding signal is on record?
A: The binding signal was 3460 fluorescence intensity (a.u.).

Q: How did the binding signal turn out when “CCGGCCATCTGCTGCCGCTCTTGCGCCGCCTAGTTTTGCGCGGAGTCACCTAGTGCAG” was run?
A: Its binding signal is 3820 fluorescence intensity (a.u.).

Q: For “TCCTTGATCCTTTATTTGATATTTGTTTAGATATATAATTCGGAGTCACCTAGTGCAG”, which binding signal is on record?
A: The binding signal was 37900 fluorescence intensity (a.u.).

Q: “TAGACACGTAAGCGCCACGTCAGCCAAAACCACCATCTAACGGAGTCACCTAGTGCAG” was tested. Which binding signal did it give?
A: The binding signal was 32400 fluorescence intensity (a.u.).

Q: How did the binding signal turn out when “TTAAATAAATCATTGCAGTGTAAATGGTAATATTCAGGCCCGGAGTCACCTAGTGCAG” was run?
A: Its binding signal is 31600 fluorescence intensity (a.u.).

Q: “GCTCCGTGAGATGACGTGGAGTTTACTTCCTCCGTTCCATCGGAGTCACCTAGTGCAG” was tested. Which binding signal did it give?
A: Its binding signal is 16200 fluorescence intensity (a.u.).

Q: How did the binding signal turn out when “ATGACGGAAAGAGTACATGACAAATCAATTTCCCTGTCCTCGGAGTCACCTAGTGCAG” was run?
A: Its binding signal is 3840 fluorescence intensity (a.u.).

Q: For “TCTGCCACACATCACTGAACCAGCACATGGATCACATTAACGGAGTCACCTAGTGCAG”, which binding signal is on record?
A: The binding signal was 3430 fluorescence intensity (a.u.).

Q: For “CGCTGCCGCCACCATCCACTCACCACCGACACCGTTCGTGCGGAGTCACCTAGTGCAG”, which binding signal is on record?
A: The binding signal was 3970 fluorescence intensity (a.u.).

Q: How did the binding signal turn out when “TGTTCAACAAGGGCAAGTGTGCACGCGTGTATATAAGCGTCGGAGTCACCTAGTGCAG” was run?
A: The binding signal was 3480 fluorescence intensity (a.u.).

Q: “TCAAACGTTATACGAAAAGTCGATGACGTTATATATTTTGCGGAGTCACCTAGTGCAG” was tested. Which binding signal did it give?
A: The binding signal was 5800 fluorescence intensity (a.u.).

Q: Which binding signal does the source give for “CTATCCTGGTGTTATTTGCTAATCCCGATGCGTCACTGCACGGAGTCACCTAGTGCAG” here?
A: The binding signal was 4040 fluorescence intensity (a.u.).

Q: Which binding signal does the source give for “CGATCGAACTCCATTCGTCCAGATCACCTCATGCATAACACGGAGTCACCTAGTGCAG” here?
A: Its binding signal is 4770 fluorescence intensity (a.u.).

Q: “CCCAACCACCACCCCGAAGCGAAGCCGCGTGGAGGTGGAGCGGAGTCACCTAGTGCAG” was tested. Which binding signal did it give?
A: The binding signal was 3210 fluorescence intensity (a.u.).

Q: With “AGGATTAACCATGTGACACATCCAGTGAGTCCCACGATGTCGGAGTCACCTAGTGCAG” as the sequence, how does the binding signal read?
A: The binding signal was 3530 fluorescence intensity (a.u.).

Q: With “TGGCTCCGCCTGCTCGCCGCCGGCGCCGACGCCTCCGTCGCGGAGTCACCTAGTGCAG” as the sequence, how does the binding signal read?
A: Its binding signal is 4480 fluorescence intensity (a.u.).

Q: How did the binding signal turn out when “TCTGTTGGAAAGTCACCCTGTTACCTGTCATTGTTGTATTCGGAGTCACCTAGTGCAG” was run?
A: Its binding signal is 3880 fluorescence intensity (a.u.).

Q: How did the binding signal turn out when “TGTCTTGTTGCCACTGCCGCTGGTGATAGACTCTACCATACGGAGTCACCTAGTGCAG” was run?
A: Its binding signal is 3260 fluorescence intensity (a.u.).

Q: “AATTTAACTCTTTCCCGCGTGGATGGCCGCATATATATGCCGGAGTCACCTAGTGCAG” was tested. Which binding signal did it give?
A: Its binding signal is 3460 fluorescence intensity (a.u.).

Q: “TGTCCAAATGACATGACTCACTTGGATCCTAATAGGACATCGGAGTCACCTAGTGCAG” was tested. Which binding signal did it give?
A: Its binding signal is 8450 fluorescence intensity (a.u.).

Q: Which binding signal does the source give for “AAGCTTTGCATTTGGGCGCTGGGCATGTCAGCGTCCGGTTCGGAGTCACCTAGTGCAG” here?
A: Its binding signal is 4440 fluorescence intensity (a.u.).

Q: Which binding signal does the source give for “CCCTCGCTGTCACCTCCCCGGTCCCATCTTTGGCCGCCGTCGGAGTCACCTAGTGCAG” here?
A: The binding signal was 3560 fluorescence intensity (a.u.).

Q: With “CACAGCGAGCAATAACAACAATACGACAGGAGGGCAAAGGCGGAGTCACCTAGTGCAG” as the sequence, how does the binding signal read?
A: Its binding signal is 5870 fluorescence intensity (a.u.).

Q: For “ATTTCATCCAGTCGTAGGGCATGGATGACGTAGGGCATGCCGGAGTCACCTAGTGCAG”, which binding signal is on record?
A: Its binding signal is 6250 fluorescence intensity (a.u.).

Q: How did the binding signal turn out when “TCACTGCTCTGTGCGTATAACATATGACAACCACCCTTCCCGGAGTCACCTAGTGCAG” was run?
A: Its binding signal is 3220 fluorescence intensity (a.u.).

Source: publication PMC7819943, “Rice protein-binding microarrays: a tool to detect cis-acting elements near promoter regions in rice”
